“And” between values parts separate entries of the source, which are not always exact repeats. Equal values may be shown once. The source gives many values for each of these; only a part stands here. Residues, ends and D or L forms follow the SMILES beside them.
What was measured:
MRSA USA 300 = test: Membrane permeability, SYTOX Green; type: cell-based, Staphylococcus aureus
Method: (§1) Fluorescent probe SYTOX^TM Green (Invitrogen/ Life Technologies, S7020) was used to analyze the effect of HT2 and RI-HT2 on membrane permeability of MRSA USA 300 and K. pneumoniae ATCC 700603 as described elsewhere. SYTOX^TM Green is a DNA binding dye that is fluorescent when bound to nucleic acids and only enters cells with compromised plasma membranes. MRSA USA 300 and K. pneumoniae ATCC 700603 were cultured in LB broth to mid log phase at 37 °C and washed with PBS and resuspended (OD595 ≈ 0.1) in the same buffer. SYTOX^TM Green was added into the cell suspension with a final concentration of 5 μM and being kept in dark for 20 min. 98 µL pre-treated cell suspension was transferred into wells of 96-well glass black plates. Then, 2 µL of compound or DMSO were added to initiate the reaction. The final concentrations of HT2 and RI-HT2 were 1 ×, 2 ×, 4 × and 8 × MIC. Fluorescence strength was measured with excitation/emission wavelength of 485/528 nm every 5 min for 60 min.

[1] = system: K. pneumoniae ATCC 700603; test: Membrane permeability, SYTOX Green; type: cell-based, Klebsiella pneumoniae
Method: as §1

[2] = system: K. pneumoniae ATCC 700603; test: Membrane depolarization assay, DiSC3(5); type: cell-based, Klebsiella pneumoniae
Method: MRSA USA 300 and K. pneumoniae ATCC 700603 were inoculated into 5 mL of LB and shaken at 37°C and 225 rpm to OD600 ≈ 0.5 (i.e., mid-logarithmic phase). Bacteria were collected by centrifugation at 8000 rpm for 5 min, and washed twice with assay buffer (5 mM HEPES, 20 mM glucose, 10 mM KCl, pH 7.2). Bacteria were resuspended in the assay buffer to OD595 ≈ 0.1. DiSC3(5) was added to the cells at final concentration of 0.3 µM, wrapped with aluminum foil, and incubated at 37°C, until a stable fluorescence was observed. Two microliter of compound or DMSO were transferred into 96-well black walled polystyrene plates, to which was added 98 µL per well of the dye-saturated bacterial cells to initiate the reaction. The final concentration of HT2 and RI-HT2 were 1 ×, 2 ×, 4 × and 8 × MIC. Plates were immediately read on an Envison at λex = 622 nm/ λem = 670 nm with a kinetic program (reading every 1 min for 10 min) until the maximal intensity achieved was observed.

With CC[C@H](C)[C@H](NC(=O)[C@H](CCCNC(=N)N)NC(=O)[C@H](CCCNC(=N)N)NC(=O)[C@H](CC(C)C)NC(=O)[C@H](Cc1ccccc1)NC(=O)[C@@H](N)CCCNC(=N)N)C(=O)N[C@@H](Cc1ccccc1)C(=O)N[C@@H](Cc1ccccc1)C(=O)N[C@@H](Cc1ccccc1)C(=O)N[C@@H](Cc1ccccc1)C(N)=O [HT2] (H-RFLRRIFFFF-NH2) the Fluorescence intensity (MRSA USA 300; 2 × MIC, time 0 min) was 1131 and 1217 and 1235, the Fluorescence intensity (MRSA USA 300; 2 × MIC, time 5 min) was 20197 and 21230 and 20865 and the Fluorescence intensity (MRSA USA 300; 2 × MIC, time 10 min) was 25460 and 25912 and 25261. For the same molecule, the Fluorescence intensity (MRSA USA 300; 2 × MIC, time 15 min) was 28346 and 28832 and 27920, the Fluorescence intensity (MRSA USA 300; 2 × MIC, time 20 min) was 30460 and 31033 and 29642 and the Fluorescence intensity (MRSA USA 300; 4 × MIC, time 0 min) was 1186 and 1404 and 1281. For the same molecule, the Fluorescence intensity (MRSA USA 300; 4 × MIC, time 5 min) was 40226 and 40219 and 41612, the Fluorescence intensity (MRSA USA 300; 4 × MIC, time 10 min) was 48704 and 48472 and 50316 and the Fluorescence intensity (MRSA USA 300; 4 × MIC, time 15 min) was 53321 and 53163 and 55112. The Fluorescence intensity (MRSA USA 300; 4 × MIC, time 20 min) was 56328 and 55931 and 58102, the Fluorescence intensity (MRSA USA 300; 8 × MIC, time 0 min) was 1674 and 1277 and the Fluorescence intensity (MRSA USA 300; 8 × MIC, time 5 min) was 46924 and 49356 and 49374. For the same molecule, the Fluorescence intensity (MRSA USA 300; 8 × MIC, time 10 min) was 54383 and 56666 and 56984, the Fluorescence intensity (MRSA USA 300; 8 × MIC, time 15 min) was 57832 and 59952 and 60652 and the Fluorescence intensity (MRSA USA 300; 8 × MIC, time 20 min) was 59829 and 61957 and 62485. The Fluorescence intensity (MRSA USA 300; MIC, time 5 min) was 12522 and 12645 and 12185, the Fluorescence intensity (MRSA USA 300; MIC, time 10 min) was 14676 and 14962 and 14128 and the Fluorescence intensity (MRSA USA 300; MIC, time 15 min) was 16119 and 16290 and 15431. The Fluorescence intensity (MRSA USA 300; MIC, time 20 min) was 16841 and 16805 and 16042, the Fluorescence intensity ([1]; 2 × MIC, time 40 min) was 5061266 and 5030558 and 4874244 and the Fluorescence intensity ([1]; 2 × MIC, time 45 min) was 5677448 and 5612956 and 5636688. For the same molecule, the Fluorescence intensity ([1]; 2 × MIC, time 50 min) was 5874321 and 5912570 and 5731926, the Fluorescence intensity ([1]; 2 × MIC, time 55 min) was 6092226 and 5904835 and 6151856 and the Fluorescence intensity ([1]; 2 × MIC, time 60 min) was 6730024 and 6627110 and 6610916. The Fluorescence intensity ([1]; 4 × MIC, time 40 min) was 8390482 and 8422816 and 8417436, the Fluorescence intensity ([1]; 4 × MIC, time 45 min) was 9115897 and 9151186 and 9254166 and the Fluorescence intensity ([1]; 4 × MIC, time 50 min) was 9526499 and 9527543 and 9626189. The Fluorescence intensity ([1]; 4 × MIC, time 55 min) was 9745162 and 9649049 and 9682277, the Fluorescence intensity ([1]; 4 × MIC, time 60 min) was 9908766 and 10130725 and 10402149 and the Fluorescence intensity ([1]; 8 × MIC, time 40 min) was 8748208 and 10395943. For the same molecule, the Fluorescence intensity ([1]; 8 × MIC, time 45 min) was 11305392 and 9590655 and 11345669, the Fluorescence intensity ([1]; 8 × MIC, time 50 min) was 12053517 and 10053693 and 11966533 and the Fluorescence intensity ([1]; 8 × MIC, time 55 min) was 12345023 and 10369365 and 12497110. The Fluorescence intensity ([1]; 8 × MIC, time 60 min) was 13012399 and 10786283 and 13085859, the Fluorescence intensity ([1]; MIC, time 45 min) was 2340358 and 2341777 and 2332380 and the Fluorescence intensity ([1]; MIC, time 50 min) was 2598680 and 2588564 and 2527431. The Fluorescence intensity ([1]; MIC, time 55 min) was 2831696 and 2611342 and 2750034, the Fluorescence intensity ([1]; MIC, time 60 min) was 2981626 and 2803081 and 2888135 and the Fluorescence intensity ([2]; 2 × MIC, time 0 min) was 302680 and 276617 and 304573. For the same molecule, the Fluorescence intensity ([2]; 2 × MIC, time 2 min) was 271312 and 250021 and 261002, the Fluorescence intensity ([2]; 2 × MIC, time 3 min) was 455375 and 430583 and 456972 and the Fluorescence intensity ([2]; 2 × MIC, time 4 min) was 478620 and 434055 and 444587. For the same molecule, the Fluorescence intensity ([2]; 2 × MIC, time 5 min) was 507397 and 451720 and 418387, the Fluorescence intensity ([2]; 2 × MIC, time 6 min) was 499690 and 417245 and 460066 and the Fluorescence intensity ([2]; 2 × MIC, time 7 min) was 470784 and 429576 and 391772. For the same molecule, the Fluorescence intensity ([2]; 2 × MIC, time 8 min) was 467039 and 421550 and 411213, the Fluorescence intensity ([2]; 2 × MIC, time 9 min) was 480548 and 429745 and 436234 and the Fluorescence intensity ([2]; 2 × MIC, time 10 min) was 489139 and 462791 and 445939. The Fluorescence intensity ([2]; 4 × MIC, time 0 min) was 346286 and 308869 and 295458, the Fluorescence intensity ([2]; 4 × MIC, time 2 min) was 313413 and 282521 and 275601 and the Fluorescence intensity ([2]; 4 × MIC, time 3 min) was 464906 and 449225 and 482726. The Fluorescence intensity ([2]; 4 × MIC, time 4 min) was 487468 and 430316 and 569485, the Fluorescence intensity ([2]; 4 × MIC, time 5 min) was 504915 and 466474 and 565850 and the Fluorescence intensity ([2]; 4 × MIC, time 6 min) was 535985 and 484757 and 502662. The Fluorescence intensity ([2]; 4 × MIC, time 7 min) was 602636 and 507164 and 508142, the Fluorescence intensity ([2]; 4 × MIC, time 8 min) was 620584 and 493354 and 494340 and the Fluorescence intensity ([2]; 4 × MIC, time 9 min) was 605997 and 514932 and 521722. For the same molecule, the Fluorescence intensity ([2]; 4 × MIC, time 10 min) was 587457 and 523583 and 516616 and the Fluorescence intensity ([2]; 8 × MIC, time 0 min) was 316720 and 318953 and 287601.
